Experimental data: PubChem BioAssay AID272 (DTP/NCI, 2004)
Values joined by “and” are separate entries in the source; they are usually repeats but may differ in a detail not shown here. Equal values may be shown once. Records with an inconclusive call do not appear.

Tested on: Lewis lung carcinoma i.m., BDF1 mice, T/C %
Assay: NCI In Vivo Anticancer Drug Screen. Data for tumor model Lewis Lung Carcinoma (intramuscular) in B6D2F1 (BDF1) mice
Details: endpoint: median survival time, schedule: Q01DX011 (ip), vehicle: water, higher = longer survival
Description: The antitumor activity of compounds was measured in mice bearing transplantable tumors. Survival or tumor size were measured and the results are expressed as the measurement made in the treated group (T) divided by the measurement made in the vehicle treated control group (C). The tumor model used in this assay is Lewis Lung Carcinoma (intramuscular) in B6D2F1 (BDF1) mice

COc1cc2c(c(OC)c1OC)-c1ccc(OC)c(=O)cc1[C@@H](N)CC2
T/C (dose: 0.6 mg/kg/injection): 101 % of control and 109 % of control
T/C (dose: 1.2 mg/kg/injection): 105 % of control and 115 % of control
